PubChem BioAssay AID1508597 – Cure First | 2020

Purpose: 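Knock-downs altering ovarian cancer cell survival with or without PARP inhibitor rucaparib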 (primary screen)
Cell system: human ovarian carcinoma lines grown from tumours: OCI-P5x (papillary serous) and OCI-C5x (clear cell)
Knock-down reagent: siRNA pool against human genes, 1.25 pmol siRNA per well
Time to read-out: 72 h or 96 h, depending on the cell culture
Treatment: rucaparib 20 µM (about IC30) or vehicle, present until read-out
Rucaparib or vehicle: Vehicle
Cell line: OCI-P5x (serous)
Measurement: 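Luminescent ATP-based viability assay read 72 or 96 h after transfection, depending on culture, given as normalised percent viability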
Direction: viability, normalised: higher = more viable cells remaining
Call rule: 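a well counts as a hit if its normalised viability is under 80 percent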
Meaning of the calls: active = viability under 80%; inactive = viability 80% or more
Shown is an unselected part of the about 2,100 reagents, in one setting of the screen. 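Calls flag viability under 80% in either arm, not effects specific to rucaparib; the reference for percent is not stated.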 Entries without a mark were called inactive. Some reagents were tested in more than one well and are listed for each. Not given: the 100% reference.

gene knocked down | technical replicate | viability, normalised (%)
SLX4 (GeneID 84464) | 1 | 84.1
SLX4 (GeneID 84464) | 2 | 79.1 (active)
SLX4 (GeneID 84464) | 3 | 84.1
MAT2A (GeneID 4144) | 1 | 57 (active)
MAT2A (GeneID 4144) | 2 | 61 (active)
MAT2A (GeneID 4144) | 3 | 68.9 (active)
RECQL5 (GeneID 9400) | 1 | 40.1 (active)
RECQL5 (GeneID 9400) | 1 | 160
RECQL5 (GeneID 9400) | 2 | 63.1 (active)
RECQL5 (GeneID 9400) | 2 | 135
RECQL5 (GeneID 9400) | 3 | 163
RECQL5 (GeneID 9400) | 3 | 80.2
AGO3 (GeneID 192669) | 1 | 65.7 (active)
AGO3 (GeneID 192669) | 2 | 67.9 (active)
AGO3 (GeneID 192669) | 3 | 77 (active)
DDR2 (GeneID 4921) | 1 | 79.9 (active)
DDR2 (GeneID 4921) | 2 | 88.1
DDR2 (GeneID 4921) | 3 | 115
NME4 (GeneID 4833) | 1 | 88
NME4 (GeneID 4833) | 1 | 64.1 (active)
NME4 (GeneID 4833) | 1 | 64.4 (active)
NME4 (GeneID 4833) | 2 | 80 (active)
NME4 (GeneID 4833) | 2 | 77.7 (active)
NME4 (GeneID 4833) | 2 | 56.4 (active)
NME4 (GeneID 4833) | 3 | 55.7 (active)
NME4 (GeneID 4833) | 3 | 68.6 (active)
NME4 (GeneID 4833) | 3 | 87.9
MAP3K9 (GeneID 4293) | 1 | 72.7 (active)
MAP3K9 (GeneID 4293) | 2 | 79.5 (active)
MAP3K9 (GeneID 4293) | 3 | 63.4 (active)
GEN1 (GeneID 348654) | 1 | 151
GEN1 (GeneID 348654) | 2 | 114
GEN1 (GeneID 348654) | 3 | 134
PRDM16 (GeneID 63976) | 1 | 51.6 (active)
PRDM16 (GeneID 63976) | 2 | 62.4 (active)
PRDM16 (GeneID 63976) | 3 | 126

The list goes on; the last 2 above are carried over.
gene knocked down | technical replicate | viability, normalised (%)
PRDM16 (GeneID 63976) | 2 | 62.4 (active)
PRDM16 (GeneID 63976) | 3 | 126
RPA2 (GeneID 6118) | 1 | 86.3
RPA2 (GeneID 6118) | 2 | 68.4 (active)
RPA2 (GeneID 6118) | 3 | 74.8 (active)
CLDN11 (GeneID 5010) | 1 | 64.5 (active)
CLDN11 (GeneID 5010) | 2 | 74 (active)
CLDN11 (GeneID 5010) | 3 | 68.8 (active)
CDC14B (GeneID 8555) | 1 | 91.6
CDC14B (GeneID 8555) | 2 | 77.3 (active)
CDC14B (GeneID 8555) | 3 | 63.9 (active)
EYA3 (GeneID 2140) | 1 | 49.5 (active)
EYA3 (GeneID 2140) | 2 | 51.5 (active)
EYA3 (GeneID 2140) | 3 | 56 (active)
TDRD10 (GeneID 126668) | 1 | 70.4 (active)
TDRD10 (GeneID 126668) | 2 | 78.7 (active)
TDRD10 (GeneID 126668) | 3 | 85.5
CLDN5 (GeneID 7122) | 1 | 70.4 (active)
CLDN5 (GeneID 7122) | 2 | 69 (active)
CLDN5 (GeneID 7122) | 3 | 69.9 (active)
EME1 (GeneID 146956) | 1 | 101
EME1 (GeneID 146956) | 2 | 61.1 (active)
EME1 (GeneID 146956) | 3 | 85.1
